Laboratory results: PMC5814800
These are yes or no findings as the source states them, for the method shown. Binding calls can cover weak binding; strength is not graded here. Where a sequence is shown, tags or fusion partners need not be part of it.

The substances below were run against T1, wild-type ϕC31 integrase fused to T18 (Int-T18 fusion, pEY111) (Streptomyces phage ϕC31) (UniProt Q9T221) (assay: two-hybrid; bacterial two-hybrid (adenylate cyclase T18 and T25 fusions) in E. coli BTH101; colony colour on LB agar with IPTG and X-Gal, 30°C, 24–48 h).
T1 sequence: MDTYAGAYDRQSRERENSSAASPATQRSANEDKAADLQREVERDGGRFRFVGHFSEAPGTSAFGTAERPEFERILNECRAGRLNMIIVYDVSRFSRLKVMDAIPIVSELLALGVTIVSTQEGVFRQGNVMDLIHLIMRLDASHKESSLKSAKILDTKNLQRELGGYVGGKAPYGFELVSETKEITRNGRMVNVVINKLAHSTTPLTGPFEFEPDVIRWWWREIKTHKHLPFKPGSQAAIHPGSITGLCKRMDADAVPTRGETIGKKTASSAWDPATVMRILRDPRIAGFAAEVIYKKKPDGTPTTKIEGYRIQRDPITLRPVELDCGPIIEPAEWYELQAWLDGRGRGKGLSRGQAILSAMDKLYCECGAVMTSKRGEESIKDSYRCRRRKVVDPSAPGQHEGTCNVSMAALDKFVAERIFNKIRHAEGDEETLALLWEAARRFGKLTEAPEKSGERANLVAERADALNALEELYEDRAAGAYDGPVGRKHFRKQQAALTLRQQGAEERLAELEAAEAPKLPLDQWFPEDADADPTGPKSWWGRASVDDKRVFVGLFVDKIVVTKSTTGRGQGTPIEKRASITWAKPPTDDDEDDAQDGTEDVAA

Substance	binding
T25 - TG1 gp25 fusion (pCMF30) (phage TG1)	binds weakly
T25 - ϕBT1 gp3 fusion (pTK33) (phage ϕBT1)	binds
T25-ϕC31 gp3C117Y (Streptomyces phage ϕC31)	no binding
T25-ϕC31 gp3G119D (Streptomyces phage ϕC31)	no binding
T25-ϕC31 gp3L170F (Streptomyces phage ϕC31)	no binding
T25-ϕC31 gp3P154L (Streptomyces phage ϕC31)	no binding
T25-ϕC31 gp3P168L (Streptomyces phage ϕC31)	binds
